# Measured values published in PubChem BioAssay AID2685 (National Center for Advancing Translational Sciences (NCATS), 2010).
# This is one part of the list. Shown are side measurements of this screen, not its main read-out; they come without a call. Compounds called inactive in the main read-out are mostly missing here. Potencies come from curve fits of mixed quality, noted in brackets.
# Assay: qHTS Assay for Lipid Storage Modulators in Drosophila S3 Cells;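 as to cell number change: cells counted by Cell Tracker Red CMTPX staining in the red channel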
# Conditions: BODIPY lipid droplet fluorescence, 18-24 h; for cell number change: measured here: cell count max response, cells fed with added oleic acid
# Outline: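 Drosophila S3 cells got compounds at several concentrations plus oleic acid (400 uM solution). Laser-scanning cytometry with 488 nm excitation read lipid droplets at 500-530 nm and cells at 575-640 nm. Percent activity was relative to 20 uM Triacsin C.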
# [1] = measured here: lipid fluorescence (Fed channel) AC50, cells fed with added oleic acid
# [2] = measured here: cell number channel AC50, cells fed with added oleic acid
Structure (SMILES),cell number change [%],AC50 [1],AC50 [2]
Cc1ccc(-n2c(SCC(=O)NCCC3=CCCCC3)nc3n[nH]c(C)c3c2=N)cc1Cl,4.96,"0.58 µM [rising, single point]",–
COC(=O)c1cc(COC(=O)c2cccnc2SC)oc1C,-1.21,"7.31 µM [rising, partial curve]",–
CSc1ncccc1C(=O)NCCc1ccccc1,-10.5,–,–
COc1ccc(C(=O)NCCCn2ccnc2)cc1,-33.2,–,"14.6 µM [falling, partial curve, poor fit]"
Cc1ccc(C2=NN(C(=O)CCC(=O)O)C(c3cccc([N+](=O)[O-])c3)C2)cc1 (stereo not given),-20.1,"6.51 µM [falling, single point]",–
COC(=O)COc1ccc(S(=O)(=O)Nc2ccc3c(c2)OCCO3)cc1Cl,5.9,"5.17 µM [falling, partial curve]","0.517 µM [falling, partial curve]"
C=CCn1c(CNc2ccc(C)cc2)nnc1SCC(=O)N/N=C/c1ccc(O)cc1,-1.03,"1.16 µM [rising, single point]",–
Cc1ccc(NC(=S)Nc2ccc3nc(-c4ccccn4)c(-c4ccccn4)nc3c2)cc1C,14.3,"0.92 µM [rising, full curve, poor fit]",–
CCOC(=O)c1ccc(OCC(=O)c2ccc(O)cc2O)cc1,-0.101,"0.00651 µM [falling, full curve, poor fit]",–
CCN(CC(=O)Nc1c(F)cccc1F)C(=O)Cc1sc(C)nc1-c1ccc(F)cc1,65,–,"9.2 µM [rising, partial curve]"
CCSc1cc(N2CCCC2)nc(-c2cccc(C)c2)n1,2.22,"6.51 µM [rising, single point]",–
OCC#Cc1cnc2ccccc2c1,87.3,–,"29.1 µM [rising, single point]"
COc1ccc(C(=O)NC(C)CCc2ccccc2)c(O)c1 (stereo not given),115,–,"3.26 µM [falling, single point]"
O=C(NC1CCCN(Cc2ccc(Cl)cc2)C1)c1cccc(N2CCCC2=O)c1 (stereo not given),15.5,"0.92 µM [rising, full curve, poor fit]",–
CC(C)n1c(CNC(=O)c2ccccc2)nc2ccccc21,–,"3.66 µM [rising, partial curve]",–
Cc1ccc(NC(=O)c2ccccc2F)nc1,–,"2.31 µM [rising, partial curve]",–
Cc1noc(C)c1COc1ccccc1C(=O)NNC(=O)c1ccc(F)cc1,14.3,–,–
CCOC(=O)C1CCN(C(=O)COc2ccc([N+](=O)[O-])cc2)CC1,-6.77,"6.51 µM [rising, single point]",–
c1nc(NCCN2CCOCC2)c2sc3nc(N4CCOCC4)c4c(c3c2n1)CCC4,-2.07,"2.31 µM [rising, single point]",–
COC(=O)Cn1ncc(N(C)Cc2ccccc2)c(Cl)c1=O,-14.4,–,–

# One compound at a time (already shown):
# COc1ccc(C(=O)NCCCn2ccnc2)cc1 as listed: cell number change [%]: -33.2; AC50 [2]: 14.6 µM [falling, partial curve, poor fit]
# COc1ccc(C(=O)NC(C)CCc2ccccc2)c(O)c1 (stereo not given) as listed: cell number change [%]: 115; AC50 [2]: 3.26 µM [falling, single point]

# Further records.

Structure (SMILES),cell number change [%],AC50 [1],AC50 [2]
CCOc1ccccc1NC(=O)c1ccccc1NC(=O)c1ccco1,35.5,"35.5 µM [falling, single point]",–
Cc1c(C(=O)NCC(c2ccco2)N(C)C)oc2c(Cl)cccc12 (stereo not given),41.2,"10.3 µM [rising, partial curve]","11.6 µM [rising, partial curve]"
CC(C)COc1ccc(C(=O)N(Cc2ccco2)C2CCS(=O)(=O)C2)cc1 (stereo not given),-20.7,–,–
CCC/C(=C1/c2ccccc2C(=O)N1c1ccccc1)c1ccc2c(c1)OCO2,12,"1.16 µM [rising, partial curve, poor fit]",–
COc1ccc(C2C3=C(Nc4ncnn42)c2ccccc2CC3)cc1OC (stereo not given),-10.4,"0.13 µM [rising, full curve, poor fit]",–
CC(CCc1ccccc1)NC(=O)C(=O)N1CCOCC1 (stereo not given),-12.5,"29.1 µM [falling, single point]",–
O=C(c1cc(-c2cccc(O)c2)on1)N1CCN(C(c2ccccc2)c2ccccc2)CC1,–,"0.58 µM [falling, single point]",–
CCCCn1c(N)c(N(CCOC)C(=O)c2ccc(N3CCCC3=O)cc2)c(=O)[nH]c1=O,9.92,"29.1 µM [rising, single point]",–
O=S(=O)(c1cccc2nsnc12)N1CCCCC1,19.5,"29.1 µM [falling, single point]",–
Cc1ccc(C(=O)C(C)OC(=O)Cc2c[nH]c3ccccc23)cc1 (stereo not given),–,"29.1 µM [rising, single point]",–
Cc1ccc(NC(=O)CCN2C(=O)C3CCCCC3C2=O)c(O)c1 (stereo not given),-5.62,–,"0.184 µM [falling, full curve, poor fit]"
CC(C)(C)c1ccc(C2=CSC3=NCCN23)cc1,28,"10.3 µM [rising, partial curve, poor fit]",–
COc1ccc(CCNC(=O)C2CC(c3cccc(F)c3)=NO2)cc1 (stereo not given),20.2,–,–
Cc1cc2nn(-c3ccc(F)cc3)nc2cc1N,-26.4,"29.1 µM [falling, single point]",–
CCOC(=O)c1sc(NC(=O)CSc2nncs2)c(C(=O)OCC)c1C,30.4,"1.84 µM [falling, full curve]","0.259 µM [rising, full curve]"
N#Cc1ccccc1NC(=O)COC(=O)c1ccc(S(=O)(=O)N2CCCC2)cc1,11.2,"0.58 µM [falling, single point]",–
CC(NC(=O)c1cc(-c2ccc3c(c2)OCO3)nc2ccccc12)C(C)(C)C (stereo not given),–,"2.31 µM [rising, full curve]","2.31 µM [rising, partial curve, poor fit]"
O=C(CCCc1ccccc1)NCc1cn2ccsc2n1,-74.1,"0.651 µM [falling, full curve]","14.6 µM [falling, partial curve, poor fit]"
CCOCCOC(=O)c1cccc(NC(=O)OCC)c1,-19.6,"6.51 µM [falling, single point]",–
CCOC(=O)N1CCN(C(=O)C(C)c2ccc([N+](=O)[O-])cc2)CC1 (stereo not given),-4.76,"6.51 µM [falling, single point]",–
